We go through eleven sequences from US6124449.

The chains behind the UniProt entries cited, without tags or fusion partners. Residues count along the entry.
UniProt P01137, 279-390: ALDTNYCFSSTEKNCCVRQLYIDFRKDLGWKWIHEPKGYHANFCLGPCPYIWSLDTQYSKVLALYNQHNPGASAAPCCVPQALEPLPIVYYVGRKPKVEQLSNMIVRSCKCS
UniProt P61812, 303-414: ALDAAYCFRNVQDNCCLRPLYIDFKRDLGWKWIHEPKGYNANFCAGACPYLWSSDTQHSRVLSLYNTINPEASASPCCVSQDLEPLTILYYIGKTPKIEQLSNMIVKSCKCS

For some assays here: Weaker means in comparison with the reference protein, sequence or condition of that experiment. For some assays here: For at least one entry, the source does not settle the construct or the ends of the probe.

Series [1] has as its target TGF-beta1 (hTGF-beta1) (Homo sapiens) (UniProt P01137). Nature of the series: filter binding. Particulars: 2'-F C and U, biphasic, purified recombinant protein.
Series [2] shares this target. Nature of the series: activity in cells. Particulars: 2'-F C and U, MLEC assay, purified recombinant protein.
Series [3] addresses TGF-beta2 (Homo sapiens) (UniProt P61812). Nature of the series: SPR. To be noted: 2'-F C and U; some binding, better than random RNA, slow on and off rates; lower than TGF-beta1; purified recombinant protein; label: 5'-biotin for BIAcore specificity.

Consider “GGGAGGACGAUGCGGGACCCUUGUCUGCGAUUCAACUCGUAGGUUUUCUCACGUGCAGACGACUCGCCCGA [40-12]”, for which, in series [1] (Kd1 5.5±0.7 nM), the Kd was 0.0007 nM. With “GGGAGGACGAUGCGGGACUCUUGUCUGCGAUUCAACUCGUAGGUCUUCUCACGUGCAGACGACUCGCCCGA [40-53]”, the Ki in series [2] (no inhibition) is over 1300 nM. In the case of “GGGAGGACGAUGCGGGGGUUAUUGGGCGUCAACAUCCCCGAUUCUUUUCACGUCCAGACGACUCGCCCGA [40-03]”, the binding result in series [3] was “binds more weakly”. As for “GGGAGGACGAUGCGGUACAAGGUUACGCCGUCGGACCCUGCUGCCAACAUCCUCCCCAGACGACUCGCCCGA [40-20]”, the Ki in series [2] (no inhibition though binds at nM) is over 1300 nM. With “GGGAGGACGAUGCGGUGCCUUUAGCCUAGACCUUGUCUUCUGCCGCAGACGACUCGCCCGA [30-28]”, the Ki in series [2] (no inhibition though binds) was over 130 nM. The same measure, in the same setting: with “GGGAGGACGAUGCGGUGCCUUUAGCCUGAGUAUACUGAUGUAUAUUCUCUGCCGCAGACGACUCGCCCGA [40-41]” the figure was over 130 nM. On to “GGGAGGACGAUGCGGUGCCUUUAGCUUAGGCAUUGCCUUCUGCCGCAGACGACUCGCCCGA [30-20]”, for which the Kd in series [1] (Kd1 2.57±0.3 nM) stood at 0.0007 nM. “GGGAGGACGAUGCGGUGUCUUUAGCCUAGGUGAUUCCUUCUGCCGCAGACGACUCGCCCGA [30-10]”: in series [2] (no inhibition though binds), the Ki was over 300 nM. For the sequence “GGGAGGACGAUGCGGUUAAGGGCGUCAACACCGCUAUUAAACUUUCGCUUCCCAGACGACUCGCCCGA [40-31]”, the Kd in series [1] (Kd1 8.4±2.8 nM) was found to be 0.0007 nM. As for “GGGAGGACGAUGCGGUUAUGGGCGUCAACACCGCUAUUACAGUUUUCGCCUCCCCCAGACGACUCGCCCGA [40-60]”, the binding result in series [3] is listed as “binds more weakly”. In the case of “GGGAGGACGAUGCGGUUAUGGGUGUCAACACCGCUAUUACAACUUUCGCCUCCCCAGACGACUCGCCCGA [40-79]”, in series [1] (Kd1 0.6±0.1 nM), the Kd worked out at 0.0005 nM.
